Source: EP2311482A1, “Osteogenic synthetic BMP-7 peptides, pharmaceutical compositions cell culture medium containing same” (Industry Foundation Of Chonnam National University, priority 2009, dated 2011)
At least one peptide structure holds a part that was inferred or is arguable (an end, a ring closure or a residue). No end group written: not given here.

Key:
CD44 [1] = experiment: FACS analysis of surface markers of osteoblast differentiation; assay type: cell-based, mouse; details: 1 µg/ml in ODM, FIGS. 9a and 9b
osteocalcin = experiment: Fluorescent antibody microscopy of osteoblast-specific protein expression; assay type: cell-based, mouse; details: ODM with 1 µg/ml, compared with ODM alone or supplemented with BMP-7; FIGS. 6a and 6b
mesenchymal stem cells = experiment: Chemotaxis and cell migration assay during differentiation into osteoblasts; assay type: cell-based, mouse; details: in ODM, compared with BMP-7; FIGS. 13a and 13b
Runx-2 = experiment: Fluorescent antibody microscopy of osteoblast-specific protein expression; assay type: cell-based, mouse; details: 1 µg/ml; FIGS. 8a and 8b
mice = experiment: In vivo bone formation after implantation of treated cells with collagen support (X-ray, hematoxylin & eosin); details: for bone formation (X-ray): FIGS. 14a and 14b; for bone formation (hematoxylin & eosin staining): tissues excised at Week 8, FIGS. 15a and 15b
[2] = tested on: Mesenchymal stem cells (cloned from Balb/c mouse bone marrow stromal cells); experiment: Assay for mineralization by alizarin red S staining during osteoblast differentiation; assay type: cell-based; details: compared with cells treated with BMP-7; FIGS. 4a and 4b
type 1 collagen = experiment: Real-time PCR of osteoblast-specific gene expression; assay type: cell-based, mouse; details: 1 µg/ml; as percentage of that in ODM free of BFP 1; FIG. 5a
CD47 = experiment: FACS analysis of surface markers of osteoblast differentiation; assay type: cell-based, mouse; details: supplemented ODM compared with ODM alone, FIG. 9a
Runx2 = experiment: Real-time PCR of osteoblast-specific gene expression; assay type: cell-based, mouse; details: 1 µg/ml; as percentage of that in ODM free of BFP 1; FIG. 5a
CD44 [3] = experiment: Fluorescence microscopy of surface marker with PE-conjugated antibody and DAPI; assay type: cell-based, mouse; details: ODM with peptide compared with ODM alone, FIGS. 10a and 10b
CD51 = experiment: FACS analysis of surface markers of osteoblast differentiation; assay type: cell-based, mouse; details: supplemented ODM compared with ODM alone, FIGS. 9a and 9b
calcium = experiment: Concentration measured with a commercially available diagnostic kit during osteoblast differentiation; assay type: cell-based, mouse; details: 1µg/ml; FIGS. 11a and 11b
[4] = Week 8 after implantation, compared with BMP-7

Sequence	expression of CD44 (CD44 [1])	expression of osteocalcin (osteocalcin)	cell migration (mesenchymal stem cells)	expression level of Runx-2 (Runx-2)	bone formation (X-ray) (mice; Week 4 after implantation)	bone formation (X-ray) (mice; [4])	bone formation (hematoxylin & eosin staining) (mice)	mineralization (alizarin red color intensity) compared with BMP-7 [2]	expression level of type 1 collagen (type 1 collagen) [%]	expression of CD47 (CD47)	expression level of Runx2 (Runx2) [%]	expression of CD44 (CD44 [3])	expression of CD51 (CD51)	level of calcium (calcium)
GQGFSYPYKAVFSTQ [BFP 1, Gly-Gln-Gly-Phe-Ser-Tyr-Pro-Tyr-Lys-Ala-Val-Phe-Ser-Thr-Gln]	expressed at a higher level	expressed at a higher level	more cells were observed to migrate	higher expression level	bone appeared	greater bone formation	induced bone formation like as BMP7 control	more intense colors	171	expressed at higher levels	178	Higher levels of CD44	expressed at higher levels	Significant increases
VEHDKEFFHPRYHHR [BFP 2, Val-Glu-His-Asp-Lys-Glu-Phe-Phe-His-Pro-Arg-Tyr-His-His-Arg]	expressed at a higher level	expressed at a higher level	more cells were observed to migrate	higher expression level	bone appeared	greater bone formation	induced bone formation like as BMP7 control	more intense colors				Higher levels of CD44		Significant increases
